In PMC11212232:
Results are given in words; binding and its absence hold for the method and conditions named. Binding seen in cells or lysates may run through a third protein. A yes stands for co-enrichment or nearness to the bait. Other partners may have been found.

Protein sequences, listed by entry. Tags and fused reporters are not part of them. Residues count along the entry.
UniProt Q9NYB9: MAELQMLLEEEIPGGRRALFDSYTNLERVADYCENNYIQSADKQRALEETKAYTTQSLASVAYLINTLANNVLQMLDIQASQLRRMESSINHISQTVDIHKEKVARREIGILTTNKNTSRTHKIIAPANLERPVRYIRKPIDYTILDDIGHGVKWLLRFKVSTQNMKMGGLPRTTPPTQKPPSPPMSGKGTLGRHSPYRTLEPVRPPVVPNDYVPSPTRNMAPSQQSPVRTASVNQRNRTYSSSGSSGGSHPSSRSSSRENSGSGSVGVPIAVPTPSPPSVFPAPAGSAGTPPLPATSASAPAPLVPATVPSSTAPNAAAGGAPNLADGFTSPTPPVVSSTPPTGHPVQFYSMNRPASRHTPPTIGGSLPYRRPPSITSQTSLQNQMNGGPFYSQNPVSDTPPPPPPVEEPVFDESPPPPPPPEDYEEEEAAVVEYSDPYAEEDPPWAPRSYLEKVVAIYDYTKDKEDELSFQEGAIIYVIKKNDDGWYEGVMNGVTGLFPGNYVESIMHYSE
UniProt P21281: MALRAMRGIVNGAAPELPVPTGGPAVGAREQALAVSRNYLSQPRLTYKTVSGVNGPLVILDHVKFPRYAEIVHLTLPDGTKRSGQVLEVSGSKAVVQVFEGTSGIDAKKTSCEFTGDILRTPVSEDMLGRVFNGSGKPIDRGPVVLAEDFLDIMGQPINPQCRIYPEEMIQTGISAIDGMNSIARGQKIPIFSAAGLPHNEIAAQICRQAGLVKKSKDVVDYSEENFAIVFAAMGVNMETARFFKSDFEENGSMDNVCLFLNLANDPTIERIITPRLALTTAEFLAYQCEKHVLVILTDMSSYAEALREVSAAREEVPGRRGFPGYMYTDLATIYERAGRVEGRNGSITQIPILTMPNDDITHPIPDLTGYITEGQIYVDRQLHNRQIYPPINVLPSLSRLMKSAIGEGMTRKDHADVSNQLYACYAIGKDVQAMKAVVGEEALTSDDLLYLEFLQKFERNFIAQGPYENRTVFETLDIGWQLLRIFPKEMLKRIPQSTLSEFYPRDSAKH
UniProt Q16864: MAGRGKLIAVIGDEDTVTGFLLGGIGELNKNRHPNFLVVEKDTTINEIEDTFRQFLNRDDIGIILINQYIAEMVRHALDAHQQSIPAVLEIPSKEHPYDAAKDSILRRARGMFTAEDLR
UniProt P24385: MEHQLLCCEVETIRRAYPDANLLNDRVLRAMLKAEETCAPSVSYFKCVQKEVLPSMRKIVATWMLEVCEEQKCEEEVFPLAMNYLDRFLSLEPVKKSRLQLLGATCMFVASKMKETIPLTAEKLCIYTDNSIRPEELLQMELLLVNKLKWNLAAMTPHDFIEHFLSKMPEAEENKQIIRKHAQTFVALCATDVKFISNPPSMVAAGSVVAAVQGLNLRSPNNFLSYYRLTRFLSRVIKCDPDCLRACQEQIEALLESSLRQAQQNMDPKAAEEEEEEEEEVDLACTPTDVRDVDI
UniProt P12109, residues 20-1028: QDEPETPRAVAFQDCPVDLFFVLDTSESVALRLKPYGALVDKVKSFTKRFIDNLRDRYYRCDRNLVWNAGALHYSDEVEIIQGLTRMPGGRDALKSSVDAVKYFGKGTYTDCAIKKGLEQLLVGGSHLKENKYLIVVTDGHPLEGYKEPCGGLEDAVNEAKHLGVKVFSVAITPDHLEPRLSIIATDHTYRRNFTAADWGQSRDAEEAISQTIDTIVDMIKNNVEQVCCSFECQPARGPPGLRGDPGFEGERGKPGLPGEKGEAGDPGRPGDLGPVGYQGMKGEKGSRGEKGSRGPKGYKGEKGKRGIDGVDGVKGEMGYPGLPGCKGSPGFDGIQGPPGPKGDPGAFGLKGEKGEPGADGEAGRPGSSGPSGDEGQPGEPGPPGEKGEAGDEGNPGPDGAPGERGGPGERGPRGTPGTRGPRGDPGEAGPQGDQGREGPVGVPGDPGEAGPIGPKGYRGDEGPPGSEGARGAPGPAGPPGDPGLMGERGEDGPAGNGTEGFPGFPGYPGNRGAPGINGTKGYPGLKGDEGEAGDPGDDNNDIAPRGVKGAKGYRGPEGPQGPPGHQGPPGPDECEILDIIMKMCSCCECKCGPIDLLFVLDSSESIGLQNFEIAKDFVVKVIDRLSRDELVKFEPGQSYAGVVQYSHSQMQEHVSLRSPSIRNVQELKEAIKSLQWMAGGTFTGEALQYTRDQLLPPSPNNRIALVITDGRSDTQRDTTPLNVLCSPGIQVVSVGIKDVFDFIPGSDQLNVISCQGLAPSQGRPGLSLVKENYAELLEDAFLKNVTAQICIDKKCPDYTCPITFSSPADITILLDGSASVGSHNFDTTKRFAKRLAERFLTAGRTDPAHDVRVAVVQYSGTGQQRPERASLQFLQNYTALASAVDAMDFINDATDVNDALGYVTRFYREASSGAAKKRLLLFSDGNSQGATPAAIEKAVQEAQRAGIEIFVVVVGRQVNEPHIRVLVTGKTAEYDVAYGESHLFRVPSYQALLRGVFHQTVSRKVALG
UniProt O60573: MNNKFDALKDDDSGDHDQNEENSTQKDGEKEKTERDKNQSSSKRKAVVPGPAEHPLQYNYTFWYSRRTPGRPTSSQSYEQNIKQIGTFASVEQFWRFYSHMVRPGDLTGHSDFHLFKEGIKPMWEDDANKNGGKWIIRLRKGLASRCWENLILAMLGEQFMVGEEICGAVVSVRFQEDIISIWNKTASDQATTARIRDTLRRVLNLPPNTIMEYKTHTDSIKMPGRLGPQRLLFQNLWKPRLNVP
UniProt P62873: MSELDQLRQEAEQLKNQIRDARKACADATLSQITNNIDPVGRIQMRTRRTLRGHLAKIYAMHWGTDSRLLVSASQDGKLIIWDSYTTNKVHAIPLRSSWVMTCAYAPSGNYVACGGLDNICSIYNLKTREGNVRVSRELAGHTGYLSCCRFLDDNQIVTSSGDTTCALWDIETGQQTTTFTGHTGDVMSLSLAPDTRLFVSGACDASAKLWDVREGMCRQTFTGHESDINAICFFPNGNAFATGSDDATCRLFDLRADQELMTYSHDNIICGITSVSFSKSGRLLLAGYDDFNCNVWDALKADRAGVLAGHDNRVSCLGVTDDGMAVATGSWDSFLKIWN
UniProt Q9UBI6: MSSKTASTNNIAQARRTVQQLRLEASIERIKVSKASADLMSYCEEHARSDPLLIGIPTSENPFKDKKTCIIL
UniProt Q15418: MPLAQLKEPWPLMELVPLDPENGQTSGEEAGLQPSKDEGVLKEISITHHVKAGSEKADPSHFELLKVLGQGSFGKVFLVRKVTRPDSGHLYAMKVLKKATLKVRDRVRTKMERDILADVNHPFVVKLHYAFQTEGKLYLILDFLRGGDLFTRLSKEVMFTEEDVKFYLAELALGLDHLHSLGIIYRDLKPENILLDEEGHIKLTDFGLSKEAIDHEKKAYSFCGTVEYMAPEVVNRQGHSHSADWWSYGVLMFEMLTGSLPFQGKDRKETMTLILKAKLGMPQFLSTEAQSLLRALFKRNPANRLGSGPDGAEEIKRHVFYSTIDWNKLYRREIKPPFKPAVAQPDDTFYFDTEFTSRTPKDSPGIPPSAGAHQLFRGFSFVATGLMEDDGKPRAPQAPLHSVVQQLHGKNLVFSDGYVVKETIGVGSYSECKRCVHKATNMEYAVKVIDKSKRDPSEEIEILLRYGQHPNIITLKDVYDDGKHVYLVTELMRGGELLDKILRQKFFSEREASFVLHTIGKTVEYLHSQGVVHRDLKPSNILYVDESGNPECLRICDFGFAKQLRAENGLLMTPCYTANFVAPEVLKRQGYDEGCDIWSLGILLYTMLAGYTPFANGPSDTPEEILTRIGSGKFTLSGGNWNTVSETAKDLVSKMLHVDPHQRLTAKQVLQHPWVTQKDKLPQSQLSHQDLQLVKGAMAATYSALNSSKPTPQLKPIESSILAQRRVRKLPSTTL
UniProt Q9UBS0: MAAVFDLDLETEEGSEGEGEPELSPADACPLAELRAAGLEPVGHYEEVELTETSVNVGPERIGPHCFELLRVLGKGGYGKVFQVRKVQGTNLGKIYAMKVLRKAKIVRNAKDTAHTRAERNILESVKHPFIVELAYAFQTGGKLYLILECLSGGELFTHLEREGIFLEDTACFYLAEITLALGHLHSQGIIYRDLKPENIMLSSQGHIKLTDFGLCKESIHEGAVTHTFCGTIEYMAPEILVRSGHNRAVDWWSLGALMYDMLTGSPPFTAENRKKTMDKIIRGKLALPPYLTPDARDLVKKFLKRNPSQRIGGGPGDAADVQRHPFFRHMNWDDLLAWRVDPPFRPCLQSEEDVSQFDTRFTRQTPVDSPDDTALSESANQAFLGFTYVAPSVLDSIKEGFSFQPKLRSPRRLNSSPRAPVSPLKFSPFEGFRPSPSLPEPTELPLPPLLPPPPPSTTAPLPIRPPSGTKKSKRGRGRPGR
UniProt Q7L523: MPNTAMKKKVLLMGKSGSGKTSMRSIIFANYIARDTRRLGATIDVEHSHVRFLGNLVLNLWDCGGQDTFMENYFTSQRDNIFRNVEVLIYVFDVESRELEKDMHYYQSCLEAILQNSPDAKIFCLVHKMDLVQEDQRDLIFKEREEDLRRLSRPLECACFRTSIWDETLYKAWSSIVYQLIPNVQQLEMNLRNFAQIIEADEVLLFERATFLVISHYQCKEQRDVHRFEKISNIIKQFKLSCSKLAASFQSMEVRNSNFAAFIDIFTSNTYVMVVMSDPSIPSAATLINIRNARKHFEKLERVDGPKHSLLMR

Target: GFP-ABI2 (ABL-interactor 2) (human) (UniProt Q9NYB9)
Assay: affinity purification with mass spectrometry; lysate of MDA-MB-231 cells overexpressing GFP-ABI2; anti-GFP or IgG antibodies, Protein A/G magnetic beads, washed with Pierce IP lysis buffer; SDS-PAGE and LC-MS/MS

binding | Substance
binds | ATP6V1B2 (from UniProt P21281 1-511)
binds | ATP6V1F (from UniProt Q16864 1-119)
binds | CCND1 (from UniProt P24385 1-295)
binds | COL6A1 (from UniProt P12109 20-1028)
binds | EIF4E2 (from UniProt O60573 1-245)
binds | GNB1 (from UniProt P62873 1-340)
binds | GNG12 (from UniProt Q9UBI6 1-72)
binds | RAF1 (from UniProt P04049 1-648)
binds | RPS6KA1 (from UniProt Q15418 1-735)
binds | RPS6KB2 (from UniProt Q9UBS0 1-482)
binds | RRAGA (from UniProt Q7L523 1-313)
